# Source: patent US7009037 (dated 2006)
# Experiment: peptide synthesis; Tenta Gel P RAM, theoretical loading 0.20 meq/g (RAPP POLYMERE GmbH)
# Settings: whole synthesis, analytical HPLC
row,Substance,final HPLC purity
1,FILQNIEGQLVGGGYAISPRTLVAGGGG,more than 94%
2,FILQNIQGQLVGGGYAISPRTLVAG-NH2,more than 97%

# Experiment: general procedure: peptide synthesis; Tenta Gel P RAM, theoretical loading 0.20 meq/g (RAPP POLYMERE GmbH)
# Settings: whole synthesis, analytical HPLC
row,Substance,final HPLC purity
1,GATPQDLNTMLNTVGGHQAA-NH2,98%
2,G S D I A G T T S T L Q E Q I G W M T-NH2,90%
3,HIVWASRELERFAVNPGLLEVT-NH2,more than 95%
4,PIVQNIQGQMVHQAISPRTLNAW-NH2,approximately 93%
5,RLIYATRQLQRFAVNPGLLIT-NH2,more than 97%
6,W S A L A G T T S L L Q G Q L G W I T-NH2,more than 97%
7,YAIPQALNTLLNTVGGHQAA-NH2,98%
